The values that follow come from paper PMC6733876.

Protein sequences, listed by entry. Tags and fused reporters are not part of them. Lines headed by an entry give the natural chain unless they say otherwise; changes in a name come on top.
UniProt P98086: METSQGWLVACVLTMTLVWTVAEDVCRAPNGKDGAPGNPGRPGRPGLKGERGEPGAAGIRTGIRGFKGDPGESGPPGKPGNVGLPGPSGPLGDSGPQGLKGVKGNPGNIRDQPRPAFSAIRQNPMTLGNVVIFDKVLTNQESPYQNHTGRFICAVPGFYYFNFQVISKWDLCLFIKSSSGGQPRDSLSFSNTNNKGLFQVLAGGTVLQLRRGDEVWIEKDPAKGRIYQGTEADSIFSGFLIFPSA

The target in test [1] is human dendritic cell-specific intercellular adhesion molecule-3-grabbing nonintegrin (DC-SIGN), stable DCEK transfectant (human) (UniProt Q9NNX6). The test can be described thus: binding to transfected cells, immunoblot of the cell lysates; wild-type or DCEK transfectants incubated with 3% sera (NMS, NHS or C1q-depleted human serum) in TC buffer for 1 h at 37 °C; lysates immunoblotted for C1q. In general terms: In western blotting, separated proteins are transferred to a membrane and probed.

In test [2] the target is T1, DC-SIGN in spleens of DC-SIGN^BMT/SIGN-R1^TKO mice (human), Q9NNX6.
T1 chain: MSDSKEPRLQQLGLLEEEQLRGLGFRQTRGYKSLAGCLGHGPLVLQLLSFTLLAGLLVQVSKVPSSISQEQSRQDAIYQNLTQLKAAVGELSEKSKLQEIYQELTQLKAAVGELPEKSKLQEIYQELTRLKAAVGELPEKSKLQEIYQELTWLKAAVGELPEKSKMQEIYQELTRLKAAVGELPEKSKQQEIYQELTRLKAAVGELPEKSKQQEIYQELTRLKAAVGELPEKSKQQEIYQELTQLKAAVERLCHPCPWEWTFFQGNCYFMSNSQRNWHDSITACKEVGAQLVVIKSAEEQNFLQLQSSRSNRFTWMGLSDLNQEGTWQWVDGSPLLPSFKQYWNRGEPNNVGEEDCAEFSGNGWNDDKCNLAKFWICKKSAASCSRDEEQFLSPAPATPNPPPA
Nature of the test: immunoblot of sucrose gradient fractions (monomer, dimer and multimer bands on SDS-PAGE); cells or tissues solubilised in 1% Triton X-100 in MES-buffered saline, sucrose gradient ultracentrifugation, 12 fractions, immunoblotted for DC-SIGN or SIGN-R1; without or with S. pneumoniae. As to conditions: remark: other sources report otherwise.

The target of test [3] is T2, human dendritic cell-specific intercellular adhesion molecule-3-grabbing nonintegrin (DC-SIGN), stable DCEK transfectant (human), Q9NNX6.
T2 chain: T1 chain
Described as above. The conditions noted are these: remark: other sources report otherwise.

The target of test [4] is SIGN-R1, stable DCEK transfectant (mouse) (UniProt Q8CJ91). Described as above.
Test [5] concerns the target SIGN-R1, endogenous in mouse spleen and lymph node (mouse (endogenous in spleen)) (UniProt Q8CJ91). The test is described as above.

No constants are given. Whether binding was seen depends on the method and setting. Some binding calls cover weakened binding; strength is not graded here.

Turning to “mouse C1q from normal mouse serum (from UniProt P98086 23-245; P14106 26-253; Q02105 30-246) (complex)”, the binding entry in test [1] is recorded as “binds”.

B1: DC-SIGN in spleens of DC-SIGN^BMT/SIGN-R1^TKO mice, Q9NNX6 1-404 (receptor)
chain: T1 chain
For the molecule B1, in test [2], the binding result is reported as “binds”.

B2: human dendritic cell-specific intercellular adhesion molecule-3-grabbing nonintegrin (DC-SIGN), stable DCEK transfectant, Q9NNX6 1-404 (receptor)
chain: T1 chain
Turning to B2, the binding entry in test [3] was “binds”.

B3: SIGN-R1, stable DCEK transfectant (receptor, UniProt Q8CJ91 1-325)
chain: MSDSTEAKMQPLSSMDDDELMVSGSRYSIKSSRLRPNSGIKCLAGCSGHSQVPLVLQLLSFLFLAGLLLIILFQVSKTPNTERQKEQEKILQELTQLTDELTSRIPISQGKNESMQAKITEQLMQLKTELLSRIPIFQGQNESIQEKISEQLMQLKAELLSKISSFPVKDDSKQEKIYQQLVQMKTELFRLCRLCPWDWTFLLGNCYFFSKSQRNWNDAVTACKEVKAQLVIINSDEEQTFLQQTSKAKGPTWMGLSDLKKEATWLWVDGSTLSSRFQKYWNRGEPNNIGEEDCVEFAGDGWNDSKCELKKFWICKKSATPCTEG
Consider B3, for which the binding entry in test [4] is recorded as “binds”.

B4: SIGN-R1, endogenous in mouse spleen and lymph node (receptor, UniProt Q8CJ91 1-325)
chain: B3 chain
For B4, the binding result in test [5] is “binds”.
